# Values quoted from earlier work in patent US20090221984A1 (priority 2008, published 2009).
# Chains of the proteins cited; added tags and fusions are not shown.
# UniProt P05177, whole entry: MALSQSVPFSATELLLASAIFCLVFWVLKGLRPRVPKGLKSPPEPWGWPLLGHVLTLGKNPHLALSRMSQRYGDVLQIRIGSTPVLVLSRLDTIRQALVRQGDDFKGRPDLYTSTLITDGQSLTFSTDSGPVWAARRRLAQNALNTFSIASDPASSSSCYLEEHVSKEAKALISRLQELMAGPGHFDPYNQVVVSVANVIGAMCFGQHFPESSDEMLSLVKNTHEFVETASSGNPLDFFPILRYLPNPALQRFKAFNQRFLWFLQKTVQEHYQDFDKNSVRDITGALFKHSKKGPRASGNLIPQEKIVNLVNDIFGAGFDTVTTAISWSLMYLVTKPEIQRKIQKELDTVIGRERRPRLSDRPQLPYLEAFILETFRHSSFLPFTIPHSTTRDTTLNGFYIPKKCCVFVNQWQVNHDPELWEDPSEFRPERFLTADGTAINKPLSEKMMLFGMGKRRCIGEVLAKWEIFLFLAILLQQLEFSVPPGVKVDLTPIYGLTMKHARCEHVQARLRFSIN
# Biological target: CYP1A2 (Homo sapiens, UniProt P05177)
# Conditions: by CYP1A2 (minor extent CYP3A4) to monoethylglycinexylidide and glycinexylidide
compound,measurement,value
CCN(CC)CC(=O)Nc1c(C)cccc1C [Lidocaine],fraction metabolized in the liver,approximately 90%
